Source: PubChem BioAssay AID504444 (National Center for Advancing Translational Sciences (NCATS), 2011)
Among all 360,000 compounds or so, about 7,500 (2.1%) were called active. Inconclusive results, whose numbers are uncertain, are shown with a selection of clear calls. Calls follow the shape of the dose curve; as a rule, active = well fitted inhibition curve with a large enough effect; inconclusive = small, poorly fitted or top-dose-only effect, or effect the other way; inactive = flat fitted curve, though single readings scatter. Potencies beside an inconclusive call are fits to weak or partial responses and may not hold up.

Assay: Nrf2 qHTS screen for inhibitors; also: nearly all actives have a fitted effect of over 60% in size
Conditions: A549 ARE-Fluc reporter, luciferase luminescence, 18-24 h; series mostly up to 46 µM
Procedure, shortened: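 A549 ARE_Fluc cells, 5000/well, 5% FBS OPTI-MEM; compounds in dose-response, 18-24 h at 37 °C/5% CO2; CellTiter-Fluor viability read (Ex 405/Em 525), then BugLite luciferase luminescence = Nrf2 activity.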
Potency is read from the fitted curve at half-maximal effect.

Compound | Potency
O=C(C(=O)N1CCN(c2ccc(F)cc2)CC1)N1CCCCC1 | inactive
COc1ccccc1C(C[N+](=O)[O-])c1c(N)n(C)c(=O)n(C)c1=O (stereo not drawn) | active: 11.6 µM
CCc1ccc(C2C(C#N)=C(N)C(C#N)(C#N)C3=CCC(C(C)(C)C)CC32)cc1 (stereo not drawn) | inconclusive: 23.1 µM [falling, single point]
Cc1ccccc1CN1c2ccccc2S(=O)(=O)c2ccccc21 | inconclusive: 29.1 µM [falling, single point]
Cc1cccc(C(=O)NNC(=O)c2n[nH]c(=O)c3ccccc23)c1C | inconclusive: 6.51 µM [activator, full curve, poor fit]
CCOC(=O)c1[nH]c(C)c(C(=O)OCC(=O)NCc2ccc(OC)c(OC)c2)c1C | inconclusive: 29.1 µM [falling, single point]
CC(=O)c1ccc(Nc2nc(=O)c3cccnc3s2)cc1 | inconclusive: 0.58 µM [activator, full curve]
Cc1ccc(S(=O)(=O)N2CCCC2)cc1C(=O)N1CCN(Cc2ccccc2)CC1 | inactive
O=C(Cn1ncc2c([nH]c3ccccc32)c1=O)Nc1cccc(C(F)(F)F)c1 | inconclusive: 32.6 µM [activator, single point]
O=[N+]([O-])/C(C(Cl)=C(Cl)Cl)=C(\Sc1ccccc1)N1CCCCC1 | inconclusive: 6.51 µM [activator, partial curve, poor fit]
O=C(CCl)Nc1cc2[nH]c(=O)[nH]c2cc1Br | active: 20.6 µM
COc1ccc(OCCCC(=O)OC(C)C(=O)Nc2ccc(S(N)(=O)=O)cc2)cc1 (stereo not drawn) | inactive
O=C(COc1cccc2cccnc12)Nc1ccccc1 | inconclusive: 8.2 µM [activator, partial curve]
Cc1ccccc1OC(C)C(=O)Nc1ccc(S(=O)(=O)Nc2nccs2)cc1 (stereo not drawn) | inconclusive: 7.31 µM [falling, partial curve]
CC(=O)N1CCCC(C(=O)c2ccc(Oc3ccccc3)cc2)C1 (stereo not drawn) | inconclusive: 13 µM [falling, partial curve, poor fit]
C=CCn1c(C)cc(C(=O)CSc2ccc(NC(C)=O)cc2)c1C | inconclusive: 0.366 µM [activator, full curve, poor fit]
CN=C1NN=C(c2cc(C)n(-c3ccc(Cl)cc3)c2C)CS1 | inconclusive: 29.1 µM [activator, single point]
Cc1ccccc1S(=O)(=O)Cc1ccc(C(=O)N(C)C2CCCCC2)o1 | inactive
O=C(N/N=C/c1cc(Br)ccc1O)C(c1ccncc1)N1CCOCC1 (stereo not drawn) | inconclusive: 20.6 µM [falling, partial curve, poor fit]
COCCN(C(=O)CCl)C(C(=O)NC1CCCCC1)c1ccccc1C (stereo not drawn) | inconclusive: 16.4 µM [falling, single point]
CCOC(=O)C(=CNc1cccnc1Oc1ccc(C)c2c1CCC2)C(=O)OCC | active: 18.4 µM
CC(C)c1ccc(NC(=O)COC(=O)CSc2nnc(N)s2)cc1 | inactive
Cn1c(CNC(=O)c2ccco2)nnc1SCC(=O)Nc1ccc(Cl)cc1 | inconclusive: 8.2 µM [falling, partial curve]

Compound | Potency
CC(C)CCN(C(=S)Nc1cccc(F)c1)C1CCN(C(C)C)CC1 | inconclusive: 29.1 µM [falling, single point]
N#CCc1nn(Cc2ccc(F)cc2)c(=O)c2ccccc12 | inactive
CC(C)NC(=O)c1cnc(N2CCN(c3ccccn3)CC2)c2ccccc12 | inconclusive: 11.6 µM [falling, single point]
COc1cc(OC)cc(-c2nc(-c3cccc(C)c3)no2)c1 | inconclusive: 11.6 µM [activator, partial curve]
O=C(Nc1sc2c(c1C(=O)O)CCCC2)c1ccc(F)cc1 | inactive
N#CCC(=O)N/N=C/c1cc(-c2ccccc2)n(-c2ccc(Cl)cc2)c1-c1ccccc1 | inconclusive: 25.9 µM [falling, partial curve, poor fit]
O=[N+]([O-])c1ccc(C(O)CN2CCN(C/C=C/c3ccccc3)CC2)cc1 (stereo not drawn) | inconclusive: 20.6 µM [falling, partial curve, poor fit]
CCc1ccc(CNC(=O)CN2C(=O)COc3ccccc32)cc1 | inconclusive: 18.4 µM [activator, single point]
Clc1cccc(Cl)c1-c1noc(CN2CCOCC2)n1 | inconclusive: 29.1 µM [activator, single point]
COc1cccc(-c2nc(NC(C)C)c3ccccc3n2)c1O | inconclusive: 16.4 µM [falling, partial curve, poor fit]
Cc1c(C(=O)Nc2ccc(F)cc2)oc2ccc(S(=O)(=O)N3CC(C)CC(C)C3)cc12 (stereo not drawn) | active: 7.31 µM
CC1=NN(C(N)=S)C(=O)C1N=Nc1c(Cl)cc([N+](=O)[O-])cc1Cl (stereo not drawn) | inconclusive: 23.1 µM [falling, partial curve, poor fit]
Cc1ccc(N(C(=O)c2ccccc2Cl)C2=NC(C)CS2)c(C)c1 (stereo not drawn) | inconclusive: 20.6 µM [falling, single point]
COC(=O)c1ncn(C2OC(COC(C)=O)C(OC(C)=O)C2OC(C)=O)n1 (stereo not drawn) | inconclusive: 10.3 µM [falling, partial curve, poor fit]
CC1CCN(C(=O)c2ccc3ccccc3c2)CC1 | inconclusive: 16.4 µM [activator, partial curve, poor fit]
CCOc1cccc(C(=O)Nc2ccc3ccccc3c2)c1 | inconclusive: 0.164 µM [activator, full curve, poor fit]
O=C(Nc1nc2ccccc2n1CCN1CCOCC1)c1ccc(COc2ccccc2Br)o1 | active: 13 µM
c1ccc(Cc2nnc(N3CCOCC3)c3ccccc23)cc1 | inactive
Cc1ccnc(N2CCC(C(=O)NNC(=O)c3ccccc3C)CC2)n1 | inconclusive: 3.66 µM [activator, single point]
Cc1ccc(-c2csc(N3C(=N)SCC3=O)n2)cc1 | inconclusive: 1.84 µM [activator, full curve]
COc1ccc(C=NNC(=S)NN=Cc2ccc(OC)c(OC)c2)cc1OC | active: 14.6 µM
CCn1c(SCC(=O)N/N=C/c2ccc(O)c(OC)c2)nc2ccccc21 | inconclusive: 18.4 µM [activator, partial curve]
COc1cccc(NC(=O)C(C)OC(=O)CCCNC(=O)c2ccc(Cl)cc2)c1 (stereo not drawn) | inconclusive: 29.1 µM [activator, single point]

Compound | Potency
Cc1ccc(CNC(=O)c2cn(C)c(=O)c3c2c2ccccc2n3C)o1 | inactive
C=C(C)CC1Nc2ccccc2NC1CC(=C)C (stereo not drawn) | inactive
CCc1cccc(OCC(=O)Nc2ccc(C)c(S(=O)(=O)N3CCCCCC3)c2)c1 | inconclusive: 18.4 µM [falling, single point]
C/C(=N\NC(=O)c1nnn(-c2nonc2N)c1CN(C)c1ccccc1)c1ccccn1 | inconclusive: 0.326 µM [falling, full curve, poor fit]
O=C(Cn1ncc2c3ccccc3n(Cc3ccccc3)c2c1=O)NCCN1CCOCC1 | inactive
COc1cc(NC(=O)c2sc3nc4n(c(=O)c3c2C)CCCCC4)cc(OC)c1OC | inactive
O=c1c2ccc([N+](=O)[O-])cc2ncn1Cc1ccccc1C(F)(F)F | inconclusive: 13 µM [falling, partial curve, poor fit]
CC1CCN(CC(=O)N(C)c2c(N)n(Cc3ccccc3)c(=O)[nH]c2=O)CC1 | inconclusive: 13 µM [activator, single point]
CC1CCCCN1C(=O)COC(=O)C1CCN(S(=O)(=O)c2ccc(Cl)c(C(F)(F)F)c2)CC1 (stereo not drawn) | inactive
COc1ccc(C(=O)Nc2ccccc2C(=O)N/N=C/c2ccccn2)cc1OC | active: 9.2 µM
COc1ccc2nc(/C=N/NC(=O)CCNC(=O)OC(C)(C)C)ccc2c1 | inactive
CCCN(CCC)S(=O)(=O)c1ccc(C(=O)OCCN2C(=O)c3cccc4c(N5CCOCC5)ccc(c34)C2=O)cc1 | inactive
CNC(=O)c1cnn2c(C)cc(C)nc12 | inactive
Cc1ccc(NS(=O)(=O)c2ccc(C(=O)N3CCC3)cc2)cc1 | inconclusive: 23.1 µM [falling, partial curve]
CCOC(=O)Cc1csc(NC(=O)c2c(O)c3c(n(CC(C)C)c2=O)CCCC3)n1 | inconclusive: 2.91 µM [activator, single point]
COc1ccc(N2CCN(c3nc(Nc4ccc(C)c(F)c4)nc(N4CCCC4)n3)CC2)cc1 | inconclusive: 16.4 µM [falling, partial curve]
CC(=O)Nc1ccc(NC(=O)c2oc3cc(C)c(C)cc3c2C)cc1 | inconclusive: 0.58 µM [falling, full curve, poor fit]
COc1nc(-c2ccccc2)ccc1-c1noc(-c2cccnc2)n1 | inactive
Cc1ccc(NC(=O)COc2cccc(Oc3ccccc3)c2)cc1S(=O)(=O)N1CCOCC1 | inconclusive: 14.6 µM [falling, partial curve, poor fit]
CCOc1ccc(-c2cc(C(=O)NN=C3CCN(C)CC3)[nH]n2)cc1 | inconclusive: 2.31 µM [activator, partial curve, poor fit]
CCOC(=O)c1c(NC(=O)CSc2ncccn2)sc2c1CCN(Cc1ccccc1)C2 | inconclusive: 18.4 µM [falling, single point]
CCOC(=O)c1c(C)[nH]c(C)c1C(=O)CSc1nnc(-c2ccc(OC(F)F)cc2)o1 | inconclusive: 29.1 µM [falling, single point]

Part of the list above in order of number of heavy atoms, smallest number first.
Compound | Potency
Cc1ccc(CNC(=O)c2cn(C)c(=O)c3c2c2ccccc2n3C)o1 | inactive
COc1ccc2nc(/C=N/NC(=O)CCNC(=O)OC(C)(C)C)ccc2c1 | inactive
CCCN(CCC)S(=O)(=O)c1ccc(C(=O)OCCN2C(=O)c3cccc4c(N5CCOCC5)ccc(c34)C2=O)cc1 | inactive
